Assay results taken from patent publication US20040039031A1, “Novel pharmaceutical compositions having an antidiabetic action, and process for their preparation” (priority 2000, published 2004).

Test system: NIDD STZ rats
Experiment: Streptozotocin-induced NIDD diabetic rats, eight-day oral treatment, plasma biological parameters
Type: in vivo, male Wistar rats
Procedure: 40 male Wistar rats (Charles River, Saint Aubin les Elbeuf, France), with an average weight of 280 g, are used in this experiment. The animals are housed for one week in a standardised animal house, the following parameters of which are controlled: The forty rats are made diabetic by IP administration of 50 mg/kg of streptozotocin dissolved in physiological saline (a single administration). […] For each rat, 100 μl of blood are collected by venepuncture in a caudal vein, onto heparin, at time D0 (before the administration of STZ), at time D21 (21 days after STZ, before the treatments) and at D29 (after eight days of treatment). The samples are immediately centrifuged (10 minutes at 4000 rpm) and the plasma is separated from the blood cells. […] After thawing the plasma samples, the above parameters are determined by enzymatic methods, using a COBAS automated machine (Roche). The glycaemia is measured by the hexokinase method; the cholesterol by the enzymatic final Randox point method; the triglycerides by the GPO-PAP method; the lactic acid by the lactic dehydrogenase method. The circulating insulin is measured by radioimmunoassay using CEA kits. The efficacy of the treatments is evaluated between […] by a t test adapted to paired series (for each rat, the value at D21 relative to D29 serves as the control).

## CN(C)C(=N)N=C(N)N [Metformin, metformin]
Metformin 30 mg/kg/day group, D0 (before STZ)
  Weight: 288 g
Metformin (hydrochloride) 30 mg/kg/day orally in two doses, D29 (after eight days of treatment)
  Weight: 247 g
